In paper PMC7989706:
Results are given in words; binding and its absence hold for the method and conditions named. In cells and extracts the contact can be indirect.

Target: obesity-associated protein (FTO) (human (endogenous in MHCC97H)) (UniProt Q9C0B1)
Assay: co-IP; IP from cell lysate (Pierce IP Lysis Buffer), antibody with protein A/G beads overnight at 4 C, three washes with lysis buffer, western blot; cell line not stated

B1: S-adenosylmethionine decarboxylase proenzyme (AMD1) (enzyme, UniProt P17707 1-334)
chain: MEAAHFFEGTEKLLEVWFSRQQPDANQGSGDLRTIPRSEWDILLKDVQCSIISVTKTDKQEAYVLSESSMFVSKRRFILKTCGTTLLLKALVPLLKLARDYSGFDSIQSFFYSRKNFMKPSHQGYPHRNFQEEIEFLNAIFPNGAAYCMGRMNSDCWYLYTLDFPESRVISQPDQTLEILMSELDPAVMDQFYMKDGVTAKDVTRESGIRDLIPGSVIDATMFNPCGYSMNGMKSDGTYWTIHITPEPEFSYVSFETNLSQTSYDDLIRKVVEVFKPGKFVTTLFVNQSSKCRTVLASPQKIEGFKRLDCQSAMFNDYNFVFTSFAKKQQQQQS
- binding: no binding
